Assay results as given in patent US20120178769A1, “NOVEL COMPOUNDS FOR INHIBITING EEF-2 KINASE ACTIVITY” (The University of Medicine and Dentistry, priority 2009, published 2012).

Molecular target: eEF2 kinase (Homo sapiens, UniProt O00418)
Test: eEF2 kinase activity assay with purified eEF2 (33P-ATP, SDS-PAGE, autoradiography)
Format: biochemical
Settings: purified eEF2, FIG. 1
Description: FIG. 1 illustrates eEF2 kinase activity assay with purified eEF2 and with different concentration of identified inhibitors.
FIG. 1 illustrates eEF2 kinase activity assay with purified eEF2 and with different concentration of identified inhibitors. Recombinant eEF2 kinase (0.5 μg) was incubated with purified rabbit reticulocyte eEF2 (0.5 μg) in a reaction mixture consisting of 50 mM Hepes-KOH pH 6.6, 10 mM magnesium acetate, 5 mM DTT, 100 μM CaCl2, 0.5 μg calmodulin, 50 μM ATP, and 0.2 μCi [γ-^33P]-ATP (3000 Ci/mmol). The reactions were run at 30° C. for 15 minutes, and were terminated by incubation in an ice/water bath and addition of Laemmli sample buffer. Samples were analyzed by SDS-PAGE and autoradiography.

Row | Compound | inhibition of eEF2 kinase in vitro
1 | CCCCCCCCCCCCCCCCN1C2=NCCCN2c2ccccc21 [L-587] | specific inhibitors of eEF2 kinasae
2 | CCCCCCCCCCCCCCCCn1cc[n+](-c2ccccc2)c1 [L-207] | specific inhibitors of eEF2 kinasae
